Our source for the binding values is paper PMC8150921.

Chains of the proteins cited; added tags and fusions are not shown.
UniProt P40763: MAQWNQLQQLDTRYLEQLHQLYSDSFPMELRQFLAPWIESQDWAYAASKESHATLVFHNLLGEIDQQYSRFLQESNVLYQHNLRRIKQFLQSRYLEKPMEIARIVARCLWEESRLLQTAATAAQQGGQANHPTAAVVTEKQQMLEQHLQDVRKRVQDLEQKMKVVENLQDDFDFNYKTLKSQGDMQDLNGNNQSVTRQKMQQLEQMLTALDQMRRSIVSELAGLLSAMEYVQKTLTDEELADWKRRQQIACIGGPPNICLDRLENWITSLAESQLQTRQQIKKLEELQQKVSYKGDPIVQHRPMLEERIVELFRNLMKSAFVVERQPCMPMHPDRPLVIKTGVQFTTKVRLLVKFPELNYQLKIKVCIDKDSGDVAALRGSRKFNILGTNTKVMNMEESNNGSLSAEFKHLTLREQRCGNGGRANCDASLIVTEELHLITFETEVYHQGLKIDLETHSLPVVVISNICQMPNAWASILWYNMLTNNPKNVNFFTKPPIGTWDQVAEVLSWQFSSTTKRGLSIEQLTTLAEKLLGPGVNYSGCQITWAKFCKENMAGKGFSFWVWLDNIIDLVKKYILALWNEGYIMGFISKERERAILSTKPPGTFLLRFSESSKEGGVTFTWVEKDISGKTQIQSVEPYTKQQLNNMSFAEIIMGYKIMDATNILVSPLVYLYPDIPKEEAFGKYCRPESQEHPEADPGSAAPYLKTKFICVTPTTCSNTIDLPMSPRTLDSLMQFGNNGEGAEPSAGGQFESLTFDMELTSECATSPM

No constants are given. Whether binding was seen depends on the method and setting. Binding seen in cells or lysates may run through a third protein. Binding can be weak; no strength is given.

In this assay the target is flag-tagged STAT3 (STAT3-WT-Flag) (UniProt P40763). The assay can be described thus: co-IP; Flag antibody IP from lysates of transfected HEK293 cells, Western blot for p-TrkA and total TrkA.

Consider “TrkA-K538N (kinase-dead) (from UniProt P04629-2) (receptor)”, for which the binding entry is given as “binds”.
